pIC50: −log10 of the molar value.
Assay: Inhibition of protein farnesyltransferase by continuous fluorescence assay

Clc1ccc(COC(Cn2ccnc2)c2ccc(Cl)cc2Cl)cc1 (configuration not stated) [ECONAZOLE]
pIC50: 4.63

Clc1ccc(COC(Cn2ccnc2)c2ccc(Cl)cc2Cl)c(Cl)c1 (configuration not stated) [MICONAZOLE]
pIC50: 4.72

— ChEMBL document CHEMBL1157633, “Prediction and evaluation of protein farnesyltransferase inhibition by commercial drugs” (J Med Chem, 2010)
